The entries are a selection whose mix differs from that of the whole data set. The data scatter; read single values as rough.
Compound: COC(=O)/C=C/c1ccccc1 [methyl cinnamate]
Assay: log2 ratio of iodoacetamide-alkyne labeling of the cysteine site, DMSO over compound (competition); higher = stronger covalent engagement of the cysteine by the compound, active = 1 or more
Settings: 500 µM; treatment time 1 h; system: HEK293T cell lysate
How it was run: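 Electrophile (500 µM) or vehicle was added to HEK293T lysate (2 mg/mL) for 1 h at ambient temperature before iodoacetamide alkyne labelling (1 h) and click coupling to sCIP-TMT reagents. After pooling, overnight trypsin digestion at 37 °C, streptavidin enrichment and acid elution, peptides were measured by Orbitrap Eclipse LC-MS/MS with FAIMS and quantified in FragPipe. Each cysteine's log2 competition ratio compares mean control-channel with mean compound-channel reporter intensity, control over compound. Data came from duplicate channels across three replicates, excluding cysteines quantified in only one replicate.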

Amino acid sequences for entries named in this document (tags omitted). A change or cut given only in a name is not applied to a line headed by its entry.
UniProt Q9H7E9: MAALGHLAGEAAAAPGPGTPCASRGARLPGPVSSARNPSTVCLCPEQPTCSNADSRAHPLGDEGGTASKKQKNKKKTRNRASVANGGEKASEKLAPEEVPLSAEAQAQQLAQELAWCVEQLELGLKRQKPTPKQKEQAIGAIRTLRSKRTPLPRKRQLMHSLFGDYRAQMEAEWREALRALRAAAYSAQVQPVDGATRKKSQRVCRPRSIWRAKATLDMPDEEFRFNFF
UniProt Q9H3Q1: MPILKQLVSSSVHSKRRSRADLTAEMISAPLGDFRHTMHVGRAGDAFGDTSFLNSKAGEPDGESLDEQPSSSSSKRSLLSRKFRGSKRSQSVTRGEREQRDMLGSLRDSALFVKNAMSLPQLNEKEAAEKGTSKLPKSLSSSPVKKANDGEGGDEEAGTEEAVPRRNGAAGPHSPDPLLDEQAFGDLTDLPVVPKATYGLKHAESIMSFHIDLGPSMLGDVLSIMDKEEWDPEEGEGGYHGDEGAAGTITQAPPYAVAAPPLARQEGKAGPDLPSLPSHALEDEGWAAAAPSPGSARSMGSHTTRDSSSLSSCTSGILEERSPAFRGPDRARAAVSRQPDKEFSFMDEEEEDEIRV
UniProt Q9H6S0: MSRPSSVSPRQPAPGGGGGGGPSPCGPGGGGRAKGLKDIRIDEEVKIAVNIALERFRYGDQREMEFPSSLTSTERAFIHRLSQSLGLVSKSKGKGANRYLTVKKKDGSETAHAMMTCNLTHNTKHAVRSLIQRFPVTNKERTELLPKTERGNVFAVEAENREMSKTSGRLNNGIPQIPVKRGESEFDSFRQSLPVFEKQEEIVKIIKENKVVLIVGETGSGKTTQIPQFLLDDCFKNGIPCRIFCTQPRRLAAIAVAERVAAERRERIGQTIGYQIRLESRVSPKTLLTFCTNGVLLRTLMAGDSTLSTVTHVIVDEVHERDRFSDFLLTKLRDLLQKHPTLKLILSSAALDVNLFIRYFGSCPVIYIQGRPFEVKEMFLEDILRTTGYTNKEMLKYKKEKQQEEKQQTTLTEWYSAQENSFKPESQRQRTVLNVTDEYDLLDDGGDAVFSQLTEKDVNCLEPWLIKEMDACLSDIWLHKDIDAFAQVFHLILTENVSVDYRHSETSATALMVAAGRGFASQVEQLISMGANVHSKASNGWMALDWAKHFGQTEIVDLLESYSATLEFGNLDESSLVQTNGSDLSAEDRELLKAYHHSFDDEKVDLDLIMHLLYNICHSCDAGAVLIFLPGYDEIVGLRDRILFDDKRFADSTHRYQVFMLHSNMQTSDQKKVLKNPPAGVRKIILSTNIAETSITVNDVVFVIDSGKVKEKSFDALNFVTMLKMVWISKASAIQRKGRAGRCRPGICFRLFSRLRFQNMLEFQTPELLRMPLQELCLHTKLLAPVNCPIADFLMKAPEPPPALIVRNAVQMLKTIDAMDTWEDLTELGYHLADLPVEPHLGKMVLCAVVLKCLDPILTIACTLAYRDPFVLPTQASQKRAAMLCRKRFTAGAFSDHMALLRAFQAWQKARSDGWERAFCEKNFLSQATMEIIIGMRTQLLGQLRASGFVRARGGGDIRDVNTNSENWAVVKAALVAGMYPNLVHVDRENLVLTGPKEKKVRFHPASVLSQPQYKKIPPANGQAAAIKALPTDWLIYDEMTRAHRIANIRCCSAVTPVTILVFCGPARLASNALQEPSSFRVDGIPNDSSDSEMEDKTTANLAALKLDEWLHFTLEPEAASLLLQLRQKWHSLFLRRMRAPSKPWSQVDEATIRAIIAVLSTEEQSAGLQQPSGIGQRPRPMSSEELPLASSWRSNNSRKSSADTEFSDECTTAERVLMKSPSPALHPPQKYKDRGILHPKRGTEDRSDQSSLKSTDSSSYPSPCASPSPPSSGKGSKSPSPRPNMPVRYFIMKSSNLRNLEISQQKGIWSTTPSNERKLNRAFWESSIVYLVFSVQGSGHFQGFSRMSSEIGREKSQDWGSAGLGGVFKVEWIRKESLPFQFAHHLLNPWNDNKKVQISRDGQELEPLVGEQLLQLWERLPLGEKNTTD
UniProt Q9NRP4: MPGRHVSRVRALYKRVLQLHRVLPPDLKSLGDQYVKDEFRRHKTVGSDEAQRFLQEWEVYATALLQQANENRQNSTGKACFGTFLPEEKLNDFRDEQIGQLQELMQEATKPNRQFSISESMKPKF
UniProt Q9H4M9: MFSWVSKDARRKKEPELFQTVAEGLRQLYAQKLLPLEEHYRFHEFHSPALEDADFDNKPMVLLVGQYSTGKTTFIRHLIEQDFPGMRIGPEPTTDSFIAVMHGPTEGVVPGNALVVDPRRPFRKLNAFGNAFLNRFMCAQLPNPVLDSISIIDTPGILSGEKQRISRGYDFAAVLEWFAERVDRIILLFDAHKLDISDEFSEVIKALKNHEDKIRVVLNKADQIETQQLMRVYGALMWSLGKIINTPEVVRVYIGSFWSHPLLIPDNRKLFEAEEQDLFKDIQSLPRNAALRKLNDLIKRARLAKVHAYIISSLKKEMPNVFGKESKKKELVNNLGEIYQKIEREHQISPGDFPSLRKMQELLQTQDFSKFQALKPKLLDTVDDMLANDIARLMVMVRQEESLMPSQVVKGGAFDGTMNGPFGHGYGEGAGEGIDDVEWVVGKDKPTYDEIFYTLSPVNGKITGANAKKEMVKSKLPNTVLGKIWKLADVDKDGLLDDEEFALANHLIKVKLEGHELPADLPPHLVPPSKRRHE
UniProt Q9H6U6: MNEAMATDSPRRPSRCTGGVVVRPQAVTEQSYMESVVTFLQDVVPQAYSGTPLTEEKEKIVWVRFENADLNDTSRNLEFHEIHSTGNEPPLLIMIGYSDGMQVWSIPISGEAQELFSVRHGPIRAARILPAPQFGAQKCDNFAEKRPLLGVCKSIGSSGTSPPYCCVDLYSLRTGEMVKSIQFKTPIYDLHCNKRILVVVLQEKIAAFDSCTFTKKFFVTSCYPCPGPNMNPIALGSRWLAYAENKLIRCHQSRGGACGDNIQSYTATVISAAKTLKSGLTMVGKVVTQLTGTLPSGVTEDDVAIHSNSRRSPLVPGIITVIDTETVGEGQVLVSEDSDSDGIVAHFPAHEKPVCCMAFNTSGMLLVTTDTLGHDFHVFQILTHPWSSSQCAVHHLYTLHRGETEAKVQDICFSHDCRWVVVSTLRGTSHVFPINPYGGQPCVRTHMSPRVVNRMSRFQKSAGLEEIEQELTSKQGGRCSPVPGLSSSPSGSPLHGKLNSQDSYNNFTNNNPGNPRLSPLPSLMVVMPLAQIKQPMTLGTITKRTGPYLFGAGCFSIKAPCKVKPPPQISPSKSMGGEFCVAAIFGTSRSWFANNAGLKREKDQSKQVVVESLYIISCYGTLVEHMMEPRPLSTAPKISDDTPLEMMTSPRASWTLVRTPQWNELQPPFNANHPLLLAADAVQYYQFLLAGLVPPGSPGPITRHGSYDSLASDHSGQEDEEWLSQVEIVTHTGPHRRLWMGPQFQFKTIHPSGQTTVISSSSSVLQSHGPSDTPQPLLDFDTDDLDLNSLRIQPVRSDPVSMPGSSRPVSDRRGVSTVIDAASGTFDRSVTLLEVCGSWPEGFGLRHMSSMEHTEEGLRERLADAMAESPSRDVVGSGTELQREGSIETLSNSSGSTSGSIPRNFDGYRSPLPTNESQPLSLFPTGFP
UniProt Q9NS86: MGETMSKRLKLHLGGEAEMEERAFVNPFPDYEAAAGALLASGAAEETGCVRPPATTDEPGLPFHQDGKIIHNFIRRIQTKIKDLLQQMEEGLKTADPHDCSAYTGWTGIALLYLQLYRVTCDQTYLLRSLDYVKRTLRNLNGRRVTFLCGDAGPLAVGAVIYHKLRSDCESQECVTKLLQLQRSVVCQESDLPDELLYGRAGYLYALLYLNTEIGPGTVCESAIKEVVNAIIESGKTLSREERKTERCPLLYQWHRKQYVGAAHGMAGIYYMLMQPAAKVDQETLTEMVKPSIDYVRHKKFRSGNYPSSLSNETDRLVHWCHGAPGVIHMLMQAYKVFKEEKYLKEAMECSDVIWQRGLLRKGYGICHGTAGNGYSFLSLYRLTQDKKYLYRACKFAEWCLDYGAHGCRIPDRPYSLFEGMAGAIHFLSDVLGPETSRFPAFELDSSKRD
UniProt Q9H4L7: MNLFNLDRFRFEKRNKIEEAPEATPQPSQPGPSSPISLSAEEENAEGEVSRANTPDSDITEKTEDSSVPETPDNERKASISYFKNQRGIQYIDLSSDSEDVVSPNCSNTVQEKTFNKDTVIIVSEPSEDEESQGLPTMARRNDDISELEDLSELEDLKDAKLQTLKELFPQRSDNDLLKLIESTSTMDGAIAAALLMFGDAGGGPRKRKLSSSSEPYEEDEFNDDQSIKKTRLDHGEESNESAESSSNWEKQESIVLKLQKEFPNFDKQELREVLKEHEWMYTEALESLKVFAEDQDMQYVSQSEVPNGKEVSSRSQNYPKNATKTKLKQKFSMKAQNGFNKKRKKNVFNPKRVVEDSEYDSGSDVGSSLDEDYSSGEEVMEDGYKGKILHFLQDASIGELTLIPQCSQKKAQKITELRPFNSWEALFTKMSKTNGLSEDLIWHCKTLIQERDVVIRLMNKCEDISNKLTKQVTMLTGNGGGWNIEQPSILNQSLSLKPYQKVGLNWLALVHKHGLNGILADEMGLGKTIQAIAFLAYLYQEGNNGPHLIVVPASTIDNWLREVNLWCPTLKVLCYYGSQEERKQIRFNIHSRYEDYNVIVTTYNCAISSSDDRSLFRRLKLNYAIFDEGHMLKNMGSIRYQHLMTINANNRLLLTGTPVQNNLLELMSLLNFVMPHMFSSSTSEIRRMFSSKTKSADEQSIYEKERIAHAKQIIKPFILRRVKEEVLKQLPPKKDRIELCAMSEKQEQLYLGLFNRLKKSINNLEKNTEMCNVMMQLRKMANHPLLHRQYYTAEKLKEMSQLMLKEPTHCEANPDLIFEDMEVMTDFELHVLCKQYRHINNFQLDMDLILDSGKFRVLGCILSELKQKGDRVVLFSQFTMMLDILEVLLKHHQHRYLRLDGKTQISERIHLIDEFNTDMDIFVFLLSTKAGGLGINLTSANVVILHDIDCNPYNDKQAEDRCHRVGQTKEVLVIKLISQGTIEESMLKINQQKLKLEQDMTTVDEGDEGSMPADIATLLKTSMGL
UniProt Q9HCM4: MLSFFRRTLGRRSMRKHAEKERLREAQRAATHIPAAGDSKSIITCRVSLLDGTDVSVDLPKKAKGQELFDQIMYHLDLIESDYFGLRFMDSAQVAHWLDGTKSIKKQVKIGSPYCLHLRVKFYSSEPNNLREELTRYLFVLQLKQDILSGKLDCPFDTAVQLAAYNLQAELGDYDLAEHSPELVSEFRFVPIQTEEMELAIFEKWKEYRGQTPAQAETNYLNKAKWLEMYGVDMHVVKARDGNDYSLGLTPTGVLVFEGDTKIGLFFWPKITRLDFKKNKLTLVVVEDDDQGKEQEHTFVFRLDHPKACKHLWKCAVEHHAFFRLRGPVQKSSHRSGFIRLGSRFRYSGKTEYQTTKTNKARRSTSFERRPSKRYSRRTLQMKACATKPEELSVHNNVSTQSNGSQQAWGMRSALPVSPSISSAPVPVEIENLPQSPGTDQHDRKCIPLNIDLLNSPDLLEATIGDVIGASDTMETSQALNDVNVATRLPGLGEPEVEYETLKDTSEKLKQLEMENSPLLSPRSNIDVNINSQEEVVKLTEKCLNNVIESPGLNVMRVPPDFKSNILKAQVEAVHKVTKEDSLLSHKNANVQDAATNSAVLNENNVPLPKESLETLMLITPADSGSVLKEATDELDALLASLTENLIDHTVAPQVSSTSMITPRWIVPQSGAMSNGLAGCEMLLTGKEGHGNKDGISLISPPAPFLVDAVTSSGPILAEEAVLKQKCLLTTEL
UniProt Q9NRF9: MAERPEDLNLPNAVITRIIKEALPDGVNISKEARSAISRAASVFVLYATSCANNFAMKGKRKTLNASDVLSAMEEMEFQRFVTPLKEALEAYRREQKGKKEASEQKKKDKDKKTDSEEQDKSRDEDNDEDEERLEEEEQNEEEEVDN
UniProt Q9NQZ5: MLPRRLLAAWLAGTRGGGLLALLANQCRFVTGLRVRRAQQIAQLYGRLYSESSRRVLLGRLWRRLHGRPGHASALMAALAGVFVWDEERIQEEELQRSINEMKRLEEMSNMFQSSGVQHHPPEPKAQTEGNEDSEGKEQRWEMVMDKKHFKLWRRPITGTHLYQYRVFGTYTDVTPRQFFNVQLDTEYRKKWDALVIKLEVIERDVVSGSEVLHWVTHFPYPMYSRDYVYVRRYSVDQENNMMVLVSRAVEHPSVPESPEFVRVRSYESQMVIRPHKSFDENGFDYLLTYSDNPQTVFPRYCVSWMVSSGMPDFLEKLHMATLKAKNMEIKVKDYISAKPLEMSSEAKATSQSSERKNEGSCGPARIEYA
UniProt Q9NQ88: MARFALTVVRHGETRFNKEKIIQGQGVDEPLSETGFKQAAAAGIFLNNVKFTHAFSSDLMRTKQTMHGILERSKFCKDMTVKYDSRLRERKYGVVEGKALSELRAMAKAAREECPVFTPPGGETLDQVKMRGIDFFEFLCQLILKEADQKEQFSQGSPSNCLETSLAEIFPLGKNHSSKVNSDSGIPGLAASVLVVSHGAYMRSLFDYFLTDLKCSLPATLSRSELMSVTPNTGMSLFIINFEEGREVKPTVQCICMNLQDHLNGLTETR

log2 ratio of iodoacetamide-alkyne labeling, inactive:
PPA2 C302 (UniProt Q9H2U2) 0.0348
LRRC40 C23 (UniProt Q9H9A6) 0.333
PPA2 C161 (UniProt Q9H2U2) 0.154
MVB12B C267 (UniProt Q9H7P6) -0.0161
DMAP1 C199 (UniProt Q9NPF5) 0.282
NIT2 C153 (UniProt Q9NQR4) -0.025
C8orf33 C117 (UniProt Q9H7E9) 0.157
WNK1 C547 (UniProt Q9H4A3) 0.0377
JMJD4 C101 (UniProt Q9H9V9) 0.326
TRABD C287 (UniProt Q9H4I3) 0.316
CDC42EP4 C313 (UniProt Q9H3Q1) 0.381
YTHDC2 C1265 (UniProt Q9H6S0) 0.603
HEATR1 C1237 (UniProt Q9H583) -0.0185
UniProt Q9NRP4_C80 0.429
EHD1 C138 (UniProt Q9H4M9) 0.0616
ANLN C309 (UniProt Q9NQW6) 0.18
BCAS3 C16 (UniProt Q9H6U6) -0.456
UNC45A C745 (UniProt Q9H3U1) -0.18
UniProt Q9HC36_C290 0.312
MDN1 C579 (UniProt Q9NU22) -0.167
LANCL2 C49 (UniProt Q9NS86) -0.0869
SMARCAD1 C106 (UniProt Q9H4L7) 0.0476
EPB41L5 C727 (UniProt Q9HCM4) -0.0993
POLE3 C51 (UniProt Q9NRF9) 0.122
YTHDC2 C25 (UniProt Q9H6S0) 0.335
UniProt Q9H871_C4 0.000816
YTHDC2 C1211 (UniProt Q9H6S0) 0.311
UNC45A C426 (UniProt Q9H3U1) 0.11
MDN1 C57 (UniProt Q9NU22) -0.221
UniProt Q9NSY1_C912 0.413
MOV10 C16 (UniProt Q9HCE1) 0.0569
ISYNA1 C235 (UniProt Q9NPH2) -0.195
UniProt Q9H6R7_C507 0.434
FARSB C195 (UniProt Q9NSD9) 0.101
STARD7 C362 (UniProt Q9NQZ5) 0.444
GPHN C419 (UniProt Q9NQX3) 0.0575
DDX31 C286 (UniProt Q9H8H2) 0.105
UniProt Q9NQ88_C114 0.13

Random excerpt: three entries already listed
log2 ratio of iodoacetamide-alkyne labeling, inactive:
HEATR1 C1237 (UniProt Q9H583) -0.0185
UniProt Q9NSY1_C912 0.413
UniProt Q9NQ88_C114 0.13
